## Binding screen against folded nucleic acids

From ROBIN, a set of small-molecule microarray screens (doi:10.1002/anie.202211358).

Oligonucleotides screened, 5′ to 3′:
PreQ1: PreQ1 riboswitch RNA pseudoknot, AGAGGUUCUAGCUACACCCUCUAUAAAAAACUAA. From B. subtilis. Hit rate about 0.7% of about 24,000 compounds.
SAM-II: SAM-II riboswitch RNA pseudoknot, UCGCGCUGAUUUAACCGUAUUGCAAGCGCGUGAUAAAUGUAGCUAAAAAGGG. Hit rate about 1% of about 21,000 compounds.
TPP: TPP riboswitch RNA three-way junction, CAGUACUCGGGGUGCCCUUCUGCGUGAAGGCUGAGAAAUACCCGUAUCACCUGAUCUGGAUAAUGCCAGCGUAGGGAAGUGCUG. Hit rate about 0.7% of about 24,000 compounds.

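Compounds were printed on reactive glass slides in duplicate spots, a dye-labelled oligonucleotide was laid over them, and the fluorescence left after washing was read. The data file lists only calls. An earlier report of the laboratory on the PreQ1, TPP and SAM-II riboswitches (doi:10.1038/s41467-019-09493-3) used 1 µM RNA for 2 h and required a mean Z-score above 3 (spot signal-to-noise against the whole library), a score well above that on a control array, and duplicate spots agreeing (coefficient of variation under 100); it then also set aside compounds that hit other targets, which this list keeps. The cut-offs behind this list may differ. These are primary screening calls, not affinities; a compound without a hit may have attached poorly or may still bind in solution.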
“Y” means called a hit, “N” means screened and not called a hit.
This is an unselected part of the compounds tested.
A dash means that no call is listed here.

| # | SMILES | PreQ1 | SAM-II | TPP |
|---|---|---|---|---|
| 1 | `Cn1c(=S)c2[nH]c(SCCN3CCCC3)nc2n(C)c1=O` | N | N | N |
| 2 | `COc1ncccc1-c1ccc(C(O)CN2CCOCC2)cc1` (stereo not shown) | N | N | N |
| 3 | `CCC1(C)Cc2c(sc3nc(SCc4ccc(F)cc4)nc(N)c23)CO1` (stereo not shown) | N | N | N |
| 4 | `CCOCc1nc2c(c(NCCn3nc(C)nc3C)n1)CCNCC2` | N | N | N |
| 5 | `CCOC(=O)c1sc2nc3c(cc2c1N)CN(CC)CC3` | N | N | N |
| 6 | `CCOC(=O)c1c(C)oc(C)c(C(=O)OCC)c1=O` | N | N | N |
| 7 | `Cc1cc(Nc2ccccc2F)n2nc(C)nc2n1` | N | N | N |
| 8 | `Cc1ccc(CN(Cc2ccncc2)C(=O)CNC2CC2)s1` | N | N | N |
| 9 | `Clc1ccc(-c2cn3nc(CNc4ccccc4)n4c3c2CCCC4)cc1` | N | N | N |
| 10 | `Cn1ncc2c(=O)[nH]c(N)nc21` | N | N | N |
| 11 | `CCCCCCOC(=O)C1CN1C(C)(C)CO` (stereo not shown) | N | N | N |
| 12 | `Cc1ccc(S(=O)(=O)c2nc3ccccc3nc2NCc2ccco2)cc1` | N | N | N |
| 13 | `c1cnc(Oc2cccc(CNCc3ccco3)c2)nc1` | N | N | N |
| 14 | `COc1cccc(NC(=O)CCc2c(C)nc3nc(CN)nn3c2C)c1` | N | - | N |
| 15 | `CCOC(=O)C1CCN(c2c(NCCc3ccc(C)cc3)c(=O)c2=O)CC1` | N | N | N |
| 16 | `COc1ccccc1NC(=O)C(O)C(O)C(=O)Nc1ccccc1OC` (stereo not shown) | N | N | N |
| 17 | `N#CC1=C(N)OC2=C(C(=O)CC(c3ccccc3)C2)C1c1c[nH]c2ccccc12` (stereo not shown) | N | N | N |
| 18 | `CCCCNc1nc(Oc2ccc(=O)n(-c3ccccc3)n2)nc(N(C)C)n1` | N | - | N |
| 19 | `O=c1[nH]c2ccccc2n1C1CCN(Cc2ccc(-c3nc4cc5[nH]cnc5cc4nc3-c3ccccc3)cc2)CC1` | N | N | N |
| 20 | `COc1cccc(CNCc2cccn2-c2sc(C)c(C)c2C(=O)O)c1` | N | - | N |
| 21 | `CC(C)c1cc(C(=O)N2Cc3ccc(CN4CCN(C)CC4)cc3C2)c(O)cc1O` | N | N | N |
| 22 | `CCOC(=O)c1c(C)nn2c(N)c(C#N)cnc12` | N | - | N |
| 23 | `COc1ccc(OC)c(CNc2nc(-c3ccc(OC)c(OC)c3)no2)c1` | N | - | N |
| 24 | `CC1C(C#N)=C(N)Oc2c1c(=O)oc1ccccc21` (stereo not shown) | N | N | N |
| 25 | `CN(C)CC(=O)N1CCC(c2ccc(NC(=O)c3ncc(C#N)[nH]3)c(C3=CCCCC3)c2)CC1` | N | N | N |
| 26 | `CC1=NN(c2ccccc2)C(=O)C1` | N | N | N |
| 27 | `O=c1c2c(Cl)cccc2ncn1CCN1CCCC(O)C1` (stereo not shown) | N | N | N |
| 28 | `CCc1ccc(CN2C[C@@H](CN(C)C)[C@@H](CO)C2)o1` | N | N | N |
| 29 | `COc1ccc(-c2noc(NC3CCN(Cc4ccccc4)CC3)n2)cc1` | N | - | N |
| 30 | `Cc1ccc(Nc2c(-c3ccsc3)nc3ccccn23)cc1` | N | N | N |
| 31 | `CCOc1ccc([C@@H]2C[C@H](c3ccc(C(C)C)cc3)n3nc(N)nc3N2)cc1` | N | N | N |
| 32 | `N#Cc1cccnc1N1CCC(n2ccnc2-c2ccc(CO)o2)CC1` | N | N | N |
| 33 | `Oc1cc(CNCC(O)c2ccccc2)nc2ccc(F)cc12` (stereo not shown) | N | N | N |
| 34 | `CCOC(=O)c1cnc2ccccc2c1Nc1cccc(C(=O)OC)c1` | N | N | N |
| 35 | `c1ccc(CCNCc2ccco2)cc1` | N | N | N |
| 36 | `COc1ccc(C(=O)c2oc3ccc(OC)cc3c2N)cc1` | N | N | N |
| 37 | `COC1=C[C@@H]2[C@H]3Cc4ccc(OC)c(O)c4[C@@]2(CCN3C)CC1=O` | N | N | N |
| 38 | `Oc1ccc2ccccc2c1SSc1c(O)ccc2ccccc12` | N | N | N |
| 39 | `CNC(=O)c1ccc(N2C(=S)N(c3cnc(C#N)c(C(F)(F)F)c3)C(=O)C23CCC3)cc1F` | N | N | N |
| 40 | `CSc1ccc(Nc2c(C(C)=O)nnn2-c2ccc(Cl)cc2)cc1` | N | - | N |
| 41 | `O=C(NC[C@H]1CCCN1)c1cc(-c2ccccn2)n[nH]1` | N | N | N |
| 42 | `COc1cc(CN)c(-n2cccc2)cc1OC` | N | N | N |
| 43 | `CC(C)(C)Nc1ncnc2c1sc1nc3c(cc12)COC(C)(C)C3` | N | N | N |
| 44 | `CCOC(=O)c1nnn(-c2nonc2N)c1CN1CCCc2ccccc21` | N | N | N |
| 45 | `O=C(NC1CC1)C1CNCCN1C(=O)C1=Cc2ccccc2OC=C1` (stereo not shown) | N | N | N |
| 46 | `COc1ccc(CNCc2cccc(C)c2)cc1` | N | N | N |

The last 4 entries again:

| SMILES | PreQ1 | SAM-II | TPP |
|---|---|---|---|
| `CC(C)(C)Nc1ncnc2c1sc1nc3c(cc12)COC(C)(C)C3` | N | N | N |
| `CCOC(=O)c1nnn(-c2nonc2N)c1CN1CCCc2ccccc21` | N | N | N |
| `O=C(NC1CC1)C1CNCCN1C(=O)C1=Cc2ccccc2OC=C1` (stereo not shown) | N | N | N |
| `COc1ccc(CNCc2cccc(C)c2)cc1` | N | N | N |